We go through 39 targets from the supplement of paper PMC12067093, “Discovery and optimisation of a covalent ligand for TRIM25 and its application to targeted protein ubiquitination” (Chemical Science, 2025).

Amino acid sequences for entries named in this document (tags omitted). A change or cut given only in a name is not applied to a line headed by its entry.
UniProt Q96AB3: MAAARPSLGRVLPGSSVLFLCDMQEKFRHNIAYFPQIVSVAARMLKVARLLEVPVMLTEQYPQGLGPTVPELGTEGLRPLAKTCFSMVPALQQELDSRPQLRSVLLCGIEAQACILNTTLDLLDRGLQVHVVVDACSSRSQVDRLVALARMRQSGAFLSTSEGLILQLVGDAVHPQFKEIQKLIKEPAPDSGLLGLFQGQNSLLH
UniProt Q9NV88, whole entry, looked up: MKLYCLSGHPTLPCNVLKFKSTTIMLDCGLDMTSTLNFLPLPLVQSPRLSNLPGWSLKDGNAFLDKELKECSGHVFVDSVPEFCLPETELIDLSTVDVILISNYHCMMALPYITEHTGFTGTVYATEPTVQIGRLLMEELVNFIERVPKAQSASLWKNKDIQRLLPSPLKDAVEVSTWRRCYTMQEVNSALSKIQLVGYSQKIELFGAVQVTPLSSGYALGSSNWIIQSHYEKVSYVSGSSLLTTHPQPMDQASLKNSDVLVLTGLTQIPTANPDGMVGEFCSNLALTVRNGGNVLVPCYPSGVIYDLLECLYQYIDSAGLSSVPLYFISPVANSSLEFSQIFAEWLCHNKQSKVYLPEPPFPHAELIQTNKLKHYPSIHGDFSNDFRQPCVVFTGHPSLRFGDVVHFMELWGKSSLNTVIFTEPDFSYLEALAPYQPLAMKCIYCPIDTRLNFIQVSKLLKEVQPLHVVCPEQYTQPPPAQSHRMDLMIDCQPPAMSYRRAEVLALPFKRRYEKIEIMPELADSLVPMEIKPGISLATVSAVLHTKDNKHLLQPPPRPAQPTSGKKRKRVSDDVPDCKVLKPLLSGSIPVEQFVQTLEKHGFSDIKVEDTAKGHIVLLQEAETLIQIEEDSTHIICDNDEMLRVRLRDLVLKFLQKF
UniProt Q8IU81: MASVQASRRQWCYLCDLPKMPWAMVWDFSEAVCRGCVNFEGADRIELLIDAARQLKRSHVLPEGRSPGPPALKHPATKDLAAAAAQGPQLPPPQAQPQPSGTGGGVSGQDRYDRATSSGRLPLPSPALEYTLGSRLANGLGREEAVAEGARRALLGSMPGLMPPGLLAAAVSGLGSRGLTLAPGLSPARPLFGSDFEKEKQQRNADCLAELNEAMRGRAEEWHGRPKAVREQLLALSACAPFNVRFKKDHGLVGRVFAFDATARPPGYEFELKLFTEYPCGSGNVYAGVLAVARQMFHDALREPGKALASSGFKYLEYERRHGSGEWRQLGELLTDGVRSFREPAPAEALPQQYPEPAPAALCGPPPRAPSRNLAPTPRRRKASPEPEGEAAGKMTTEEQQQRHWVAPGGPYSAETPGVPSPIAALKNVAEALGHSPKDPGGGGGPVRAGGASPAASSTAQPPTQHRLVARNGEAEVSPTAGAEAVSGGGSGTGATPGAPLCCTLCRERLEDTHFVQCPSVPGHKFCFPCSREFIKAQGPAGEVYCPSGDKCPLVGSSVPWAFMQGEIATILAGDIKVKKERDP
UniProt Q9H9L3: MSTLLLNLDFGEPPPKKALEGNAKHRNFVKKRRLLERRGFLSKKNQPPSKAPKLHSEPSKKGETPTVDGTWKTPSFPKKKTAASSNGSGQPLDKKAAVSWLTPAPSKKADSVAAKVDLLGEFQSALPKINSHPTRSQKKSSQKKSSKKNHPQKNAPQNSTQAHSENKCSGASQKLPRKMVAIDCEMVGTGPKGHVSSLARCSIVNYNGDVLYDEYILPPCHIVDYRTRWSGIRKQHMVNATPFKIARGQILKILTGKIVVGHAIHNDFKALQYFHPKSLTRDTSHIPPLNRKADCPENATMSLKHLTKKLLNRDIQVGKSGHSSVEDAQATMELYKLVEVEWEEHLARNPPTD
UniProt P06213, whole entry, looked up: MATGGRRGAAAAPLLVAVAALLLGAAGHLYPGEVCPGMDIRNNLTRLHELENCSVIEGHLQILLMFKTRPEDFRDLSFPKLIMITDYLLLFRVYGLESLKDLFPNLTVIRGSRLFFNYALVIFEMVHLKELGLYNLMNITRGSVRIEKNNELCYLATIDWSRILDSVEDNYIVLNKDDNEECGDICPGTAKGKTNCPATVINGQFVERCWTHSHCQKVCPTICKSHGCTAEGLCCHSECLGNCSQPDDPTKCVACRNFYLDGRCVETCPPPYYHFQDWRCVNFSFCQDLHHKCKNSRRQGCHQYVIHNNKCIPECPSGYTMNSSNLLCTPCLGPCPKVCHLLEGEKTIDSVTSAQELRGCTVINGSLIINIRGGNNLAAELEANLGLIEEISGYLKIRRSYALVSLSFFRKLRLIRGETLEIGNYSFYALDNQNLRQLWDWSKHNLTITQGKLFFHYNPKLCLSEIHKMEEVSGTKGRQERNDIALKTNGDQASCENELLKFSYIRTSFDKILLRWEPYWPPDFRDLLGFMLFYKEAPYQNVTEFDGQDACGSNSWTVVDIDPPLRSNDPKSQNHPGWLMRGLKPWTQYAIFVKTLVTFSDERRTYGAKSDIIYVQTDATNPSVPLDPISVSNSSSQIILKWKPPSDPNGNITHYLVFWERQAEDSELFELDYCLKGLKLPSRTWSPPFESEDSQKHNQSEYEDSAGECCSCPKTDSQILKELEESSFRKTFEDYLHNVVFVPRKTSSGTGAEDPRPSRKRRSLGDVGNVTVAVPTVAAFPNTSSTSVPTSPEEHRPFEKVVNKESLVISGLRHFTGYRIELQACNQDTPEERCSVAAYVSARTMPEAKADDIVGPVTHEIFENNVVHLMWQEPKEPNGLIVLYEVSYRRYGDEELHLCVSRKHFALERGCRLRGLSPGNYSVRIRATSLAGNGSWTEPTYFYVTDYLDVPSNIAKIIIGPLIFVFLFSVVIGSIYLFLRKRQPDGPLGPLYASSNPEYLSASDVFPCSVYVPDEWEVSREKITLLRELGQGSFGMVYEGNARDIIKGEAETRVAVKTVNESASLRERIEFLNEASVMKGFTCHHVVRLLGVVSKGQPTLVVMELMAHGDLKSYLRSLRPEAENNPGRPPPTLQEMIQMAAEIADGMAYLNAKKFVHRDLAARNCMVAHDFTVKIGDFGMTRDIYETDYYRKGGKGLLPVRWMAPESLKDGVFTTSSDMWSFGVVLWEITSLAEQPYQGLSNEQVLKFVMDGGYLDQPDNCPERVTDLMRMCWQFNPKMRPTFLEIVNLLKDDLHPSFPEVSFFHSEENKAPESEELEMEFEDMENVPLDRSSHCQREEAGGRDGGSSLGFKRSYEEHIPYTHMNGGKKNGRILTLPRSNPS
UniProt Q92835: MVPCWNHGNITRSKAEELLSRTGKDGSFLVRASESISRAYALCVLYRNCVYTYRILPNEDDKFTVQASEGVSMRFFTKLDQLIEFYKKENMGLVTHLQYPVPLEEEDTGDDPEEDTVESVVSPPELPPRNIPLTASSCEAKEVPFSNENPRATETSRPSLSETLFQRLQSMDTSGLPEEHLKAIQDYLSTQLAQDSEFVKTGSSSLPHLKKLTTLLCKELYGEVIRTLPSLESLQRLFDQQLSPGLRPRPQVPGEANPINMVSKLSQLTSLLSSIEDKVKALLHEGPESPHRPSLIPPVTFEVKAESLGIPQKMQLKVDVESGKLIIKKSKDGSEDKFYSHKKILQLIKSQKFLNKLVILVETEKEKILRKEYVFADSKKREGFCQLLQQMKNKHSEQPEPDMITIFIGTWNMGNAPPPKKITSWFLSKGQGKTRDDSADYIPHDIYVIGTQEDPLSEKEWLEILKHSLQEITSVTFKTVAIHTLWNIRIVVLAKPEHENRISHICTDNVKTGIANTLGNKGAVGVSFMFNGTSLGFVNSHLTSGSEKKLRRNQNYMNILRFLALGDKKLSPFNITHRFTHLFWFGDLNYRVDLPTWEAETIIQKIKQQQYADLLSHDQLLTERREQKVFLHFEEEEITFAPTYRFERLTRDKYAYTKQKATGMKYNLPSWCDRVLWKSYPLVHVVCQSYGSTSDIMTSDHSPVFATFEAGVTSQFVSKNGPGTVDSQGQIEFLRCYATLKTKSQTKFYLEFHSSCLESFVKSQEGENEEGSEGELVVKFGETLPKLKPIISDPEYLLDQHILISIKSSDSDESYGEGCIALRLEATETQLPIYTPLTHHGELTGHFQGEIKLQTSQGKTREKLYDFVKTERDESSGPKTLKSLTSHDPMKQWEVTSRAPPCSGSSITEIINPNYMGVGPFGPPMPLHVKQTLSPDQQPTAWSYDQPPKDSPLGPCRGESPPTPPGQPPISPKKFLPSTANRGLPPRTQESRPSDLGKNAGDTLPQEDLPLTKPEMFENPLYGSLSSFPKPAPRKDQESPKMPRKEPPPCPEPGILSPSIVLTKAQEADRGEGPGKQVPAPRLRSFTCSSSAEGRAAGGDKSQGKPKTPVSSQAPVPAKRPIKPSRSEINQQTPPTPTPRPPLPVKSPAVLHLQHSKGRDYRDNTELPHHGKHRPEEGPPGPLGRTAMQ
UniProt Q96HW7, whole entry, looked up: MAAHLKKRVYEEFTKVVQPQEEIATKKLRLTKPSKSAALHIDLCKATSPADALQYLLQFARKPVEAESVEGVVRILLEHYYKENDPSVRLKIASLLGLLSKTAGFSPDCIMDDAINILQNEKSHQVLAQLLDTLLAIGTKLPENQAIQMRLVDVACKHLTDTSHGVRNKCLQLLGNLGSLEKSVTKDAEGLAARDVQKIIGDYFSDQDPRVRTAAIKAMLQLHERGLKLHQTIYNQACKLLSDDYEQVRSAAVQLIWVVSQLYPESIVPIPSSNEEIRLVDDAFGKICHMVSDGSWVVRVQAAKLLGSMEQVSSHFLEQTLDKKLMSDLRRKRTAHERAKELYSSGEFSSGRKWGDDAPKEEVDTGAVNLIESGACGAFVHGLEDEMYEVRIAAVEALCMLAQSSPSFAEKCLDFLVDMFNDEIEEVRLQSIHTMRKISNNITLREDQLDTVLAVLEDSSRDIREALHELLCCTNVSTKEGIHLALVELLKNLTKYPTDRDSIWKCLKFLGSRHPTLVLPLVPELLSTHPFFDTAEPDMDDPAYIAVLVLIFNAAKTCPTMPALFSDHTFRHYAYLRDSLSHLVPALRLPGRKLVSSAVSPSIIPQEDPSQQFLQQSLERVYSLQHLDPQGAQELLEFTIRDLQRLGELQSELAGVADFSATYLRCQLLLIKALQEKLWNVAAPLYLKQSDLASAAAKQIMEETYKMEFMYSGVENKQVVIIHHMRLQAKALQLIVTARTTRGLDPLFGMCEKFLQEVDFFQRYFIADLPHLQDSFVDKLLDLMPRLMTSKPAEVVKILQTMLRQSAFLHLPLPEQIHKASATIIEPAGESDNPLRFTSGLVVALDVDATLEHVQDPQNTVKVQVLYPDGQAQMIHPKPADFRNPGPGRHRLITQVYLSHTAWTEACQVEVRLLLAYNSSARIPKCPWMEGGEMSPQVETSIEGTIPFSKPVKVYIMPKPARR
UniProt O15357: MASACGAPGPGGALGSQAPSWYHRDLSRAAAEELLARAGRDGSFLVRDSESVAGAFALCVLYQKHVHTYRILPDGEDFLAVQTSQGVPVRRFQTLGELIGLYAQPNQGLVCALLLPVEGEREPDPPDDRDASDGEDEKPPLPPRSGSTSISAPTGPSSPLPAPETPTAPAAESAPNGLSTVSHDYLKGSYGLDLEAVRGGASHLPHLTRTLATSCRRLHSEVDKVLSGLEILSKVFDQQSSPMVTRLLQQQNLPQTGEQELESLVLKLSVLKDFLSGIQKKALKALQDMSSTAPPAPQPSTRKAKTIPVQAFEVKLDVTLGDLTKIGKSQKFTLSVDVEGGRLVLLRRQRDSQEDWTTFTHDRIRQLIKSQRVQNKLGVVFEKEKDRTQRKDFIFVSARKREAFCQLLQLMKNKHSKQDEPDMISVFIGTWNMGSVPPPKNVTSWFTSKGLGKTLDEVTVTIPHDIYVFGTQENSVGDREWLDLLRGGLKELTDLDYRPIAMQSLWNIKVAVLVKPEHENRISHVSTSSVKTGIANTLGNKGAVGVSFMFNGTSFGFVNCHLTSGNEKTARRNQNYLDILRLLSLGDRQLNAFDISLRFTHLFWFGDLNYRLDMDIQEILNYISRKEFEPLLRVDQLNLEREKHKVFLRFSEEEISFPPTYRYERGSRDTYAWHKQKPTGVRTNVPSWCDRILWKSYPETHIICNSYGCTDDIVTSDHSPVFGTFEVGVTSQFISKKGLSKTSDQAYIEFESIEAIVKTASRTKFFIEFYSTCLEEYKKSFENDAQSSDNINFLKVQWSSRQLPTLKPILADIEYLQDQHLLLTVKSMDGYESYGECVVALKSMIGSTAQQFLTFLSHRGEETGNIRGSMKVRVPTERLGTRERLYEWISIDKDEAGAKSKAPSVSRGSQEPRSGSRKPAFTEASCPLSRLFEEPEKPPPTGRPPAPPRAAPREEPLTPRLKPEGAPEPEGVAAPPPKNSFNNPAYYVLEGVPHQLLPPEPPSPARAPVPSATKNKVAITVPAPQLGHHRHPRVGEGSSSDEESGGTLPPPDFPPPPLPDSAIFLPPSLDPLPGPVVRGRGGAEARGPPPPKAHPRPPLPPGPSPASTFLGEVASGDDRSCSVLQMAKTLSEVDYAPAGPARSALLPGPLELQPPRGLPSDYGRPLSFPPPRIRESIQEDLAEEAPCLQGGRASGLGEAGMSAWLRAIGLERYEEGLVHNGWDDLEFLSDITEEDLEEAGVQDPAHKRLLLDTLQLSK

The list shows a part of the results.
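Further: competitive chemoproteomic profiling in live THP-1 cells with an iodoacetamide desthiobiotin (IA-DTB) probe, comparing probe-labelled peptide intensities in compound-treated cells against DMSO-treated controls.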

Compound in one assay: CC1Cc2ccccc2N1C(=O)C1CCCN(C1)C(=O)CCl (mixture of isomers) [TRIM25 ligand 11 (diastereomer mixture)]
Briefly: probe-labelled cysteine peptide fold change vs DMSO (competition) (log2 fold change); higher = less target engagement (more negative = stronger competition). Particulars: 10 µM; THP-1; incubation time: 4 h.
Take “INTS3_Q68E01_959_QNFFSQTPILQALQHVQASCDEAHK (UniProt Q68E01)”: the “probe-labelled cysteine peptide fold change” value is -0.118.
Turning to “ISOC2_Q96AB3_21_VLPGSSVLFLCDMQEK (UniProt Q96AB3)”, the “probe-labelled cysteine peptide fold change” value was -0.265.
On the same count and under the same terms, the same measure for “INTS6L_Q5JSJ4_745_NCSLSVDDQK (UniProt Q5JSJ4)”: 0.156; for “INTS9_Q9NV88_471_EVQPLHVVCPEQYTQPPPAQSHR (UniProt Q9NV88)”: 0.0446; for “IPO7_O95373_736_KVLTGVAGEDAECHAAK (UniProt O95373)”: -0.057.
On to “IRF5_Q13568_272_ALTISNPHGCR (UniProt Q13568)”, for which the “probe-labelled cysteine peptide fold change” value was 0.148.
Same read-out and setting: then “ITGB1_P05556_691_DKLPQPVQPDPVSHCK (UniProt P05556)”, with -0.0568.
The same measure, in the same setting: then “ITGB2_P05107_36_ECIESGPGCTWCQK (UniProt P05107)”, with 0.261; and “IRF2BP1_Q8IU81_36_GCVNFEGADR (UniProt Q8IU81)”, with -0.0621; and “IRS2_Q9Y4H2_248_CGHSDSFFFIEVGR (UniProt Q9Y4H2)”, with -0.0929.
For the target “IREB2_P48200_120_VHPACPTDLTVDHSLQIDFSK (UniProt P48200)”, the “probe-labelled cysteine peptide fold change” value was -0.0672.
Same read-out and setting: then “IREB2_P48200_604_QGDLVTCGILSGNK (UniProt P48200)”, with -0.0687; and “IQGAP1_P46940_781_QIPAITCIQSQWR (UniProt P46940)”, with 0.167.
Turning to “ISG20L2_Q9H9L3_184_MVAIDCEMVGTGPK (UniProt Q9H9L3)”, the “probe-labelled cysteine peptide fold change” value is -0.00824.
Same read-out and setting: then “IRF2BP2_Q7Z5L9_65_RAHGCFPEGR (UniProt Q7Z5L9)”, with -0.103; and “INTS2_Q9H0H0_722_LLATNYPHLCIVDDWICEEEITGTDALLRR (UniProt Q9H0H0)”, with -0.262.
Still for that read-out and setting: the same measure for “ITGB2_P05107_198_ECQPPFAFR (UniProt P05107)”: -0.0135; for “INTS9_Q9NV88_5+14_LYCLSGHPTLPCNVLK (UniProt Q9NV88)”: -0.0225.
The same measure, in the same setting: then “ITGA5_P08648_921_CELGPLHQQESQSLQLHFR (UniProt P08648)”, with -0.0379.
As to “ITGB1_P05556_301_LGGIVLPNDGQCHLENNMYTMSHYYDYPSIAHLVQK (UniProt P05556)”, the “probe-labelled cysteine peptide fold change” value was -0.0205.
For the target “ITGAL_P20701_998_IQPSIHDHNIPTLEAVVGVPQPPSEGPITHQWSVQMEPPVPCHYEDLER (UniProt P20701)”, the “probe-labelled cysteine peptide fold change” value worked out at 0.305.
Still for that read-out and setting: the same measure for “IPO5_O00410_110_KVCDIAAELAR (UniProt O00410)”: -0.114.
In the case of “INSR_P06213_1165_NCMVAHDFTVK (UniProt P06213)”, the “probe-labelled cysteine peptide fold change” value is 0.0305.
As for “INPP5D_Q92835_4_MVPCWNHGNITR (UniProt Q92835)”, the “probe-labelled cysteine peptide fold change” value was -0.0643.
With “INTS1_Q8N201_1433_SHFLACPLLR (UniProt Q8N201)”, the “probe-labelled cysteine peptide fold change” value was -0.0305.
On the same count and under the same terms, then “ITGB2_P05107_536_LIYGQYCECDTINCER (UniProt P05107)”, with 0.116; and “IRAK3_Q9Y616_532_RNEEACNMPSSSCEESWFPK (UniProt Q9Y616)”, with 0.0201.
Regarding “INTS13_Q9NVM9_560_VLECLMACR (UniProt Q9NVM9)”, the “probe-labelled cysteine peptide fold change” value is -0.0941.
In the case of “INTS13_Q9NVM9_120_ADPECCSILHGLVAAVETLCK (UniProt Q9NVM9)”, the “probe-labelled cysteine peptide fold change” value turned out to be 0.0697.
Still for that read-out and setting: the same measure for “IRF2BP1_Q8IU81_518_LEDTHFVQCPSVPGHK (UniProt Q8IU81)”: 0.0586.
Turning to “INTS4_Q96HW7_44_SAALHIDLCK (UniProt Q96HW7)”, the “probe-labelled cysteine peptide fold change” value was 0.139.
For the target IRAK3_Q9Y616_5_AGNCGAR (UniProt Q9Y616), the “probe-labelled cysteine peptide fold change” value is -0.167.
On the same count and under the same terms, then “IPO5_O00410_110_VCDIAAELAR (UniProt O00410)”, with 0.168; and “ITGA4_P13612_198_KFGENFASCQAGISSFYTK (UniProt P13612)”, with -0.0972.
Same read-out and setting: then “INTS12_Q96CB8_209_LVWYCAR (UniProt Q96CB8)”, with -0.208; and “IQGAP1_P46940_524_AQAHAENNEFITWNDIQACVDHVNLVVQEEHER (UniProt P46940)”, with -0.0917; and “IPO5_O00410_180_MLVQCMQDQEHPSIR (UniProt O00410)”, with -0.0156.
Take “ITGB2_P05107_386_VTYDSFCSNGVTHR (UniProt P05107)”: the “probe-labelled cysteine peptide fold change” value turned out to be 0.0533.
With “INPPL1_O15357_1187_ESIQEDLAEEAPCLQGGR (UniProt O15357)”, the “probe-labelled cysteine peptide fold change” value turned out to be 0.0945.

Still in this assay, the particulars now being: 50 µM; THP-1; incubation time: 4 h.
Regarding “INTS3_Q68E01_959_QNFFSQTPILQALQHVQASCDEAHK (UniProt Q68E01)”, the “probe-labelled cysteine peptide fold change” value was -0.143.
On to “ISOC2_Q96AB3_21_VLPGSSVLFLCDMQEK (UniProt Q96AB3)”, for which the “probe-labelled cysteine peptide fold change” value came out at 0.0576.
As to “INTS6L_Q5JSJ4_745_NCSLSVDDQK (UniProt Q5JSJ4)”, the “probe-labelled cysteine peptide fold change” value was -0.0158.
Still for that read-out and setting: then “INTS9_Q9NV88_471_EVQPLHVVCPEQYTQPPPAQSHR (UniProt Q9NV88)”, with 0.0453.
On to “IPO7_O95373_736_KVLTGVAGEDAECHAAK (UniProt O95373)”, for which the “probe-labelled cysteine peptide fold change” value is -0.0217.
On the same count and under the same terms, the same measure for “IRF5_Q13568_272_ALTISNPHGCR (UniProt Q13568)”: 0.185.
Turning to “ITGB1_P05556_691_DKLPQPVQPDPVSHCK (UniProt P05556)”, the “probe-labelled cysteine peptide fold change” value was -0.0219.
Still for that read-out and setting: the same measure for “ITGB2_P05107_36_ECIESGPGCTWCQK (UniProt P05107)”: 0.0865; for “IRF2BP1_Q8IU81_36_GCVNFEGADR (UniProt Q8IU81)”: 0.0398; for “IRS2_Q9Y4H2_248_CGHSDSFFFIEVGR (UniProt Q9Y4H2)”: -0.0441.
The same measure, in the same setting: then “IREB2_P48200_120_VHPACPTDLTVDHSLQIDFSK (UniProt P48200)”, with 0.0352; and “IREB2_P48200_604_QGDLVTCGILSGNK (UniProt P48200)”, with -0.0857; and “IQGAP1_P46940_781_QIPAITCIQSQWR (UniProt P46940)”, with 0.19.
Turning to “ISG20L2_Q9H9L3_184_MVAIDCEMVGTGPK (UniProt Q9H9L3)”, the “probe-labelled cysteine peptide fold change” value was found to be 0.164.
On to “IRF2BP2_Q7Z5L9_65_RAHGCFPEGR (UniProt Q7Z5L9)”, for which the “probe-labelled cysteine peptide fold change” value was -0.0555.
Still for that read-out and setting: then “INTS2_Q9H0H0_722_LLATNYPHLCIVDDWICEEEITGTDALLRR (UniProt Q9H0H0)”, with -0.192; and “ITGB2_P05107_198_ECQPPFAFR (UniProt P05107)”, with -0.0218; and “INTS9_Q9NV88_5+14_LYCLSGHPTLPCNVLK (UniProt Q9NV88)”, with 0.0142.
Regarding “ITGA5_P08648_921_CELGPLHQQESQSLQLHFR (UniProt P08648)”, the “probe-labelled cysteine peptide fold change” value is -0.0165.
On the same count and under the same terms, the same measure for “ITGB1_P05556_301_LGGIVLPNDGQCHLENNMYTMSHYYDYPSIAHLVQK (UniProt P05556)”: 0.00143; for “ITGAL_P20701_998_IQPSIHDHNIPTLEAVVGVPQPPSEGPITHQWSVQMEPPVPCHYEDLER (UniProt P20701)”: 0.0829; for “IPO5_O00410_110_KVCDIAAELAR (UniProt O00410)”: -0.0957.
For “INSR_P06213_1165_NCMVAHDFTVK (UniProt P06213)”, the “probe-labelled cysteine peptide fold change” value was 0.0907.
Same read-out and setting: then “INPP5D_Q92835_4_MVPCWNHGNITR (UniProt Q92835)”, with -0.13; and “INTS1_Q8N201_1433_SHFLACPLLR (UniProt Q8N201)”, with 0.0859.
On to “ITGB2_P05107_536_LIYGQYCECDTINCER (UniProt P05107)”, for which the “probe-labelled cysteine peptide fold change” value was -0.103.
On the same count and under the same terms, the same measure for “IRAK3_Q9Y616_532_RNEEACNMPSSSCEESWFPK (UniProt Q9Y616)”: -0.23; for “INTS13_Q9NVM9_560_VLECLMACR (UniProt Q9NVM9)”: 0.0497.
Consider “INTS13_Q9NVM9_120_ADPECCSILHGLVAAVETLCK (UniProt Q9NVM9)”, for which the “probe-labelled cysteine peptide fold change” value is -0.0596.
On to “IRF2BP1_Q8IU81_518_LEDTHFVQCPSVPGHK (UniProt Q8IU81)”, for which the “probe-labelled cysteine peptide fold change” value is -0.0162.
Same read-out and setting: the same measure for “INTS4_Q96HW7_44_SAALHIDLCK (UniProt Q96HW7)”: -0.0645.
As to IRAK3_Q9Y616_5_AGNCGAR (UniProt Q9Y616), the “probe-labelled cysteine peptide fold change” value is -0.347.
The same measure, in the same setting: then “IPO5_O00410_110_VCDIAAELAR (UniProt O00410)”, with 0.0478; and “ITGA4_P13612_198_KFGENFASCQAGISSFYTK (UniProt P13612)”, with -0.0476.
Consider “INTS12_Q96CB8_209_LVWYCAR (UniProt Q96CB8)”, for which the “probe-labelled cysteine peptide fold change” value was -0.0997.
Same read-out and setting: the same measure for “IQGAP1_P46940_524_AQAHAENNEFITWNDIQACVDHVNLVVQEEHER (UniProt P46940)”: 0.141; for “IPO5_O00410_180_MLVQCMQDQEHPSIR (UniProt O00410)”: -0.118; for “ITGB2_P05107_386_VTYDSFCSNGVTHR (UniProt P05107)”: -0.0395.
Turning to “INPPL1_O15357_1187_ESIQEDLAEEAPCLQGGR (UniProt O15357)”, the “probe-labelled cysteine peptide fold change” value was -0.0639.
